At least one compound was matched to its structure with a doubt left.
System: Drosophila melanogaster
Assay: D. melanogaster lifespan under stress (food vials not changed, microbial pathogens)
Format: in vivo
Conditions: Example 5, flies under stress
Source text: It is well known in the literature that calorie restricted animals survive stress better than the control animals fed an ad libitum diet. The data from the experiment were charted and are represented in FIG. 5.

O=C(O)CC(=O)C(=O)O [oxaloacetate]
survival under stress: lived significantly longer
